From PMC12804605
Results are given in words; binding and its absence hold for the method and conditions named. In cells and extracts the contact can be indirect. Some results given as binding are weak or reduced against the parent protein; the word gives no strength. One block for each binder: values may come before it.

What was measured:
[1] = target: T1, PGC-1α, endogenous in mouse cells (mouse (endogenous in ovarian granulosa cells and in NIH/3T3)) (UniProt O70343); experiment: co-IP; ovarian granulosa cells of mice given vehicle, FSH, or FSH with C646, LMK-235 or SR-18292; NRF1/2 co-immunoprecipitated with PGC-1α, Western blot
T1 sequence: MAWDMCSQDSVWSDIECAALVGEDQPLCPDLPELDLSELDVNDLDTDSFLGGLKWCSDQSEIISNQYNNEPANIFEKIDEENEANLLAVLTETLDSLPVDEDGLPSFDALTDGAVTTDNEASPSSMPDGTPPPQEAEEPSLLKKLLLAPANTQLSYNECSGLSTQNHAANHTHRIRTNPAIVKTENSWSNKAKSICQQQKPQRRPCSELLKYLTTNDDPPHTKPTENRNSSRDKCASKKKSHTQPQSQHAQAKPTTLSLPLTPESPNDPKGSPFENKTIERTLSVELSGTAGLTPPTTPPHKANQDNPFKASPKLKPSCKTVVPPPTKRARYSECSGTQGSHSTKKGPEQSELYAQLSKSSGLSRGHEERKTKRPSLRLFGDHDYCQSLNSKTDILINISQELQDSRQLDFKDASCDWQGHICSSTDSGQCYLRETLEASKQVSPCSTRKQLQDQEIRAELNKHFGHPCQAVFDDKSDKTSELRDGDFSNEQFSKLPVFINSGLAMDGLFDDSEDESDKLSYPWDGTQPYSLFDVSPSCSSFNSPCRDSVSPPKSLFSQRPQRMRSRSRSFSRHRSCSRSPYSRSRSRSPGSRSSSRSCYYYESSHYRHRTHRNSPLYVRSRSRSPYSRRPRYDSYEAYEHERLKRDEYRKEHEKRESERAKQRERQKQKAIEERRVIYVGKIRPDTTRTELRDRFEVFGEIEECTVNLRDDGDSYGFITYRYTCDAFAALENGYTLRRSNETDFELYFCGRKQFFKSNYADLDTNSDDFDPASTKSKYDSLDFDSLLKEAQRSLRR

[2] = target: T2, PGC-1α, endogenous in mouse cells (mouse (endogenous in ovarian granulosa cells and in NIH/3T3)), O70343; experiment: as above; conditions: remark: other sources report otherwise
T2 chain: T1 sequence

binding [1]: binds
B1: NRF1, endogenous in mouse ovarian granulosa cells (protein, UniProt Q9WU00 1-503)
chain: MEEHGVTQTEHMATIEAHAVAQQVQQVHVATYTEHSMLSADEDSPSSPEDTSYDDSDILNSTAADEVTAHLAAAGPVGMAAAAAVATGKKRKRPHVFESNPSIRKRQQTRLLRKLRATLDEYTTRVGQQAIVLCISPSKPNPVFKVFGAAPLENVVRKYKSMILEDLESALAEHAPAPQEVNSELPPLTIDGIPVSVDKMTQAQLRAFIPEMLKYSTGRGKPGWGKESCKPIWWPEDIPWANVRSDVRTEEQKQRVSWTQALRTIVKNCYKQHGREDLLYAFEDQQTQTQATTTHSIAHLVPSQTVVQTFSNPDGTVSLIQVGTGATVATLADASELPTTVTVAQVNYSAVADGEVEQNWATLQGGEMTIQTTQASEATQAVASLAEAAVAASQEMQQGATVTMALNSEAAAHAVATLAEATLQGGGQIVLSGETAAAVGALTGVQDANGLVQIPVSMYQTVVTSLAQGNGPVQVAMAPVTTRISDSAVTMDGQAVEVVTLEQ

binding [2]: binds
B2: NRF2 (GABPα), endogenous in mouse ovarian granulosa cells, Q00422 1-454 (protein)
chain: MTKREAEELIEIEIDGTEKAECTEESIVEQTYTPAECVSQAIDINEPIGNLKKLLEPRLQCSLDAHEICLQDIQLDPDRSLFDQGVKTDGTVQLSVQVISYQGMEPKLNILEIVKTAETVEVVIDPDAHHAEAEAHLVEEAQVITLDGTKHITTISDETSEQVTRWAAALEGYRKEQERLGIPYDPIHWSTDQVLHWVVWVMKEFSMTDIDLTTLNISGRELCSLNQEDFFQRVPRGEILWSHLELLRKYVLASQEQQMNEIVTIDQPVQIIPASVPPATPTTIKVINSSAKAAKVQRSPRISGEDRSSPGNRTGNNGQIQLWQFLLELLTDKDARDCISWVGDEGEFKLNQPELVAQKWGQRKNKPTMNYEKLSRALRYYYDGDMICKVQGKRFVYKFVCDLKTLIGYSAAELNRLVIECEQKKLARMQLHGIAQPVTAVALAATSLQADKEI
